In PubChem BioAssay AID504444 (National Center for Advancing Translational Sciences (NCATS), 2011):
Among all 360,000 compounds or so, about 7,500 (2.1%) were called active. Inconclusive results, whose numbers are uncertain, are shown with a selection of clear calls. Calls come from the whole dose curve; as a rule, active = well fitted inhibition curve with a large enough effect; inconclusive = small, poorly fitted or top-dose-only effect, or effect the other way; inactive = flat fitted curve, though single readings scatter. Potencies beside an inconclusive call are fits to weak or partial responses and may not hold up.

Test: Nrf2 qHTS screen for inhibitors; note: nearly all actives have a fitted effect of over 60% in size
Details: A549 ARE-Fluc reporter, luciferase luminescence, 18-24 h; series mostly up to 46 µM
How it was run: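 Concentration-response testing used A549 ARE_Fluc cells at 5000 cells/well. Following an 18-24 h compound incubation, viability was read by fluorescence (Ex 405/Em 525) and luciferase output by luminescence.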
Potency is the fitted concentration of half-maximal effect.

Row | SMILES | Potency
1 | CCOc1ccc(-c2c(C(=O)N/N=C/c3ccc(Cl)cc3)nnn2-c2nonc2N)cc1 | inactive
2 | O=c1c2ccccc2c(-c2ccccc2)nn1-c1ccc(Cl)c(Cl)c1 | inconclusive: 29.1 µM [falling, single point]
3 | COC(=O)N/N=C/c1ccc(-c2cc(Cl)cc(Cl)c2)o1 | inconclusive: 23.1 µM [falling, single point]
4 | CCc1nnc(NC(=O)c2ccc(S(=O)(=O)N(CC(C)C)CC(C)C)cc2)o1 | active: 16.4 µM
5 | CCc1ccc(OCc2cc(=O)n3c4c(sc3n2)CCCC4)cc1 | inactive
6 | CC(C)OCc1ccc(C(=O)N2CCN(S(=O)(=O)c3ccc(Br)s3)CC2)cc1 | inconclusive: 16.4 µM [falling, single point]
7 | CCOC(=O)N1CCC(NC(=O)c2cc3c(-c4ccc(OC)c(OC)c4)nn(C)c3s2)CC1 | inconclusive: 23.1 µM [falling, single point]
8 | Cc1cc(/C=N/NC(=O)c2ccccn2)c(C)n1-c1cccc([N+](=O)[O-])c1 | inconclusive: 6.51 µM [activator, partial curve]
9 | CCN(CC)c1ccc2cc(C=O)c(=O)oc2c1 | inactive
10 | O=C(C1CCC1)N1CCCc2cc(S(=O)(=O)N3CCN(c4ccccc4)CC3)ccc21 | inconclusive: 20.6 µM [falling, partial curve, poor fit]
11 | CC(=O)c1cccc(N(CC(=O)NC2CCCCC2)C(=O)c2csnn2)c1 | inconclusive: 29.1 µM [activator, single point]
12 | Cc1ccc(S(=O)(=O)Nc2cccc3c2O[C@H](CN(C)C(=O)Nc2ccc(C(F)(F)F)cc2)[C@@H](C)CN([C@H](C)CO)C3=O)cc1 | active: 18.4 µM
13 | CCn1c2ccccc2c2cc(NC(=O)Cc3ccc(S(=O)(=O)N4CCOCC4)s3)ccc21 | inconclusive: 8.2 µM [falling, partial curve]
14 | CCOc1ccc(C(C(=O)Nc2ccc(F)cc2)N(C(=O)Cn2nnc3ccccc32)C2CC2)cc1 (stereo unspecified) | inconclusive: 16.4 µM [falling, partial curve, poor fit]
15 | CC(C)N(Cc1nccn1C)C(=O)c1cc(COc2ccc3ncccc3c2)on1 | active: 13 µM
16 | CCN(Cc1nc2ccccc2c(=O)[nH]1)C(=O)COc1ccccc1-c1ccccc1 | inconclusive: 11.6 µM [falling, partial curve]
17 | O=C(NCCc1ccccc1)c1cnc2sccn2c1=O | inconclusive: 16.4 µM [activator, single point]
18 | CCOc1ccc(CN(C)C(=O)CN2C(=O)NC(c3ccccc3)(c3ccccc3)C2=O)cc1 | inconclusive: 32.6 µM [falling, single point]
19 | O=C(Cn1cc(S(=O)(=O)N2CCCC2)c(S(=O)(=O)N2CCCC2)c1)Nc1ccccc1 | inconclusive: 11.6 µM [activator, single point]
20 | Cc1ccc(S(=O)(=O)N2CCOCC2)cc1NC(=O)CSc1nnc2cc(C)c3ccccc3n12 | inconclusive: 13 µM [falling, partial curve, poor fit]
21 | CCN(CC(=O)Nc1ccc([N+](=O)[O-])cc1OC)c1ccccc1 | inconclusive: 32.6 µM [falling, single point]
22 | COc1cc(C2CC(=O)c3cnc(N4CCN(CCO)CC4)nc3C2)cc(OC)c1OC (stereo unspecified) | inconclusive: 16.4 µM [falling, partial curve, poor fit]

Row | SMILES | Potency
23 | CCOC(=O)c1ccc(N2C(=O)c3n[nH]c(-c4ccco4)c3C2c2ccc(OCC)cc2)cc1 (stereo unspecified) | active: 18.4 µM
24 | CC(C)c1ccc(NC(=O)CC2NCCNC2=O)cc1 (stereo unspecified) | inconclusive: 23.1 µM [activator, single point]
25 | Oc1ccc(Br)cc1/C=N/n1c(-c2ccccc2)n[nH]c1=S | inactive
26 | O=c1c2cc(Br)ccc2[nH]c(=S)n1Cc1ccccn1 | inconclusive: 1.84 µM [activator, full curve]
27 | COc1ccccc1C(=O)COC(=O)c1cccs1 | inconclusive: 29.1 µM [activator, single point]
28 | CS(=O)(=O)c1ccc(-c2sc3ccccc3c2C(=O)N2CCN(c3ccc(F)cc3)CC2)cc1 | inconclusive: 1.03 µM [activator, full curve]
29 | COc1ccc(OC)c(Nc2cc(-c3ccccc3)nc(N)n2)c1 | inconclusive: 3.66 µM [falling, partial curve, poor fit]
30 | O=C(O)c1ccc(NC(=S)NC(=O)c2ccc3ccccc3c2)cc1 | inconclusive: 4.11 µM [activator, single point]
31 | O=C1C(C=NCCN2CCOCC2)=C(O)c2ccccc21 | inconclusive: 25.9 µM [activator, partial curve, poor fit]
32 | Cn1c(=O)c2[nH]c(C3CC=CCC3)nc2n(C)c1=O (stereo unspecified) | inconclusive: 13 µM [falling, partial curve]
33 | O=C(CCc1ccccc1)Nc1cc2c(cc1Cl)OCCO2 | inconclusive: 20.6 µM [activator, partial curve]
34 | COc1cccc(Cn2c(=O)c3ccccc3n3nc(C)cc23)c1 | inactive
35 | COc1ccc(C(=O)N/C(=C\c2cn(C)c3ccccc23)C(=O)OCC(C)C)cc1 | inconclusive: 2.31 µM [falling, full curve, poor fit]
36 | Cc1cc(NC(=O)c2cccs2)ncc1NC(=O)C(C)(C)C | inconclusive: 0.651 µM [activator, partial curve, poor fit]
37 | COc1cc(/C=C(\C#N)c2nc3ccccc3[nH]2)cc(Cl)c1OCc1ccccc1Cl | inconclusive: 16.4 µM [falling, single point]
38 | Cc1cc(C)nc(Sc2ncnc(N)c2[N+](=O)[O-])n1 | inconclusive: 20.6 µM [falling, single point]
39 | COc1cc(OC)c(C(=O)C=Cc2ccc(OC)c(OC)c2)c(OC)c1 | inconclusive: 32.6 µM [falling, partial curve, poor fit]
40 | CC(C)(C)OC(=O)NCc1ccc(CNC(=O)c2nc[nH]c2C(=O)N2CCN(C(=O)OC(C)(C)C)CC2)cc1 | active: 25.9 µM
41 | COc1ccccc1-n1ccnc(SCC(=O)NCc2ccccc2Cl)c1=O | inconclusive: 16.4 µM [activator, partial curve, poor fit]
42 | CCOC(=O)c1ccc(NC(=O)/C(C#N)=C/c2ccc(OC)cc2)cc1 | inactive
43 | Cc1ccc(S(=O)(=O)Nc2cc(C)cc(CCNC=O)c2C)cc1 | inactive
44 | O=C(Nc1ccccc1Br)c1ccccc1-c1ccccc1 | inactive

Row | SMILES | Potency
45 | N#Cc1nc(-c2cccs2)oc1N1CCOCC1 | inactive
46 | CCOc1ccc2nc(N3CCCC(C(=O)NCC4CCCO4)C3)sc2c1 (stereo unspecified) | inconclusive: 23.1 µM [activator, single point]
47 | CC(NC(=O)c1ccccc1F)c1nnc(SCC(=O)N2CCN(c3ccccc3)CC2)n1C (stereo unspecified) | inactive
48 | O=C(C1=C(O)C(=O)N(CC2CCCO2)C1c1cccc(Cl)c1)c1ccco1 (stereo unspecified) | inactive
49 | CCSc1nc2ccccc2n1Cc1ccccc1F | inconclusive: 16.4 µM [activator, partial curve, poor fit]
50 | O=C(Nc1ccc(N=Nc2ccccc2)cc1)c1cccc(Cl)c1 | inconclusive: 6.51 µM [falling, full curve, poor fit]
51 | Fc1ccc(C(NCCc2ccc(Cl)cc2)c2nnc(-c3ccccc3)o2)c(Cl)c1 (stereo unspecified) | inconclusive: 20.6 µM [activator, partial curve, poor fit]
52 | COc1ccccc1CNC(=O)CCn1c(=O)c2ccccc2n(CC(=O)Nc2ccc(C)cc2Cl)c1=O | inactive
53 | CCOc1ccc(NS(=O)(=O)c2cc3c4c(c2)C(C)C(=O)N4CCC3)cc1 (stereo unspecified) | inconclusive: 16.4 µM [falling, single point]
54 | COc1cccc(Cn2nnc(C(=O)Nc3cc(Cl)ccc3OC)c2N)c1 | inconclusive: 29.1 µM [falling, single point]
55 | O=C(Nc1ccccc1OC(=O)c1ccc(Cl)cc1)c1ccc(Cl)cc1 | inconclusive: 5.8 µM [falling, single point]
56 | CCOc1cc(/C=N/Nc2cc(C)nc(-n3nc(C)cc3C)n2)ccc1O | inconclusive: 20.6 µM [falling, partial curve]
57 | FC(F)(F)c1ccc(NCc2ccccn2)nc1 | inconclusive: 29.1 µM [activator, single point]
58 | CCc1nc(SCC(=O)Nc2nnc(CC)s2)c2c(=O)n(C)c(=O)n(C)c2n1 | inconclusive: 18.4 µM [falling, single point]
59 | CC(=O)Nc1ccc(-c2nc3cc(Cl)ccc3o2)cc1 | inconclusive: 2.06 µM [activator, full curve]
60 | Cc1ccc(NC(=O)CSc2nnc(NC(=O)c3ccco3)s2)cc1 | inactive
61 | Nc1nc(Br)c2c(F)cccc2c1-c1ccc(Cl)cc1 | inconclusive: 29.1 µM [falling, single point]
62 | Cc1csc(NC(=O)c2ccc3ccccc3n2)n1 | inconclusive: 6.51 µM [activator, partial curve]
63 | Cc1cc(-c2nc3cc(F)ccc3s2)ccc1N | inconclusive: 1.03 µM [activator, partial curve]
64 | CC1Cc2ccccc2N1C(=O)Cn1nc(C(=O)O)c2ccccc2c1=O (stereo unspecified) | inconclusive: 0.206 µM [falling, full curve, poor fit]
65 | CCn1c2ccccc2c2nnc(SCc3ccc(C(=O)OC)o3)nc21 | inconclusive: 32.6 µM [falling, single point]
66 | CC(OC(=O)c1cc2sccc2n1C)C(=O)NCc1ccc2c(c1)OCO2 (stereo unspecified) | inconclusive: 1.64 µM [falling, partial curve, poor fit]

A few values from above:
Entry for CCOc1cc(/C=N/Nc2cc(C)nc(-n3nc(C)cc3C)n2)ccc1O under Potency: inconclusive: 20.6 µM [falling, partial curve]
Entry for N#Cc1nc(-c2cccs2)oc1N1CCOCC1 under Potency: inactive

Some of these compounds in order of count of non-hydrogen atoms, high to low:
Row | SMILES | Potency
51 | Fc1ccc(C(NCCc2ccc(Cl)cc2)c2nnc(-c3ccccc3)o2)c(Cl)c1 (stereo unspecified) | inconclusive: 20.6 µM [activator, partial curve, poor fit]
55 | O=C(Nc1ccccc1OC(=O)c1ccc(Cl)cc1)c1ccc(Cl)cc1 | inconclusive: 5.8 µM [falling, single point]
59 | CC(=O)Nc1ccc(-c2nc3cc(Cl)ccc3o2)cc1 | inconclusive: 2.06 µM [activator, full curve]
